Assay results: the supplement of paper PMC12823440, “Inhibitors supercharge kinase turnover through native proteolytic circuits” (Nature, 2025)
Structures can show the parent of a compound that is named as a salt. The list shows a part of the results. The calls rarely recur for the same compound in another form.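 Kinases, fused to nanoluciferase, were expressed in K562 cells; luminescence was measured every 4 h from 2 to 18 h as percent of control (DMSO = 100%, positive control = 0%). A time point is decreased if signal falls significantly (2 sigma). Hits were called by the authors by a rule that is not shown; the count of time points alone does not decide it.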

Protein sequences, listed by entry. Tags and fused reporters are not part of them. Lines headed by an entry give the natural chain unless they say otherwise; changes in a name come on top.
UniProt P36888, whole entry: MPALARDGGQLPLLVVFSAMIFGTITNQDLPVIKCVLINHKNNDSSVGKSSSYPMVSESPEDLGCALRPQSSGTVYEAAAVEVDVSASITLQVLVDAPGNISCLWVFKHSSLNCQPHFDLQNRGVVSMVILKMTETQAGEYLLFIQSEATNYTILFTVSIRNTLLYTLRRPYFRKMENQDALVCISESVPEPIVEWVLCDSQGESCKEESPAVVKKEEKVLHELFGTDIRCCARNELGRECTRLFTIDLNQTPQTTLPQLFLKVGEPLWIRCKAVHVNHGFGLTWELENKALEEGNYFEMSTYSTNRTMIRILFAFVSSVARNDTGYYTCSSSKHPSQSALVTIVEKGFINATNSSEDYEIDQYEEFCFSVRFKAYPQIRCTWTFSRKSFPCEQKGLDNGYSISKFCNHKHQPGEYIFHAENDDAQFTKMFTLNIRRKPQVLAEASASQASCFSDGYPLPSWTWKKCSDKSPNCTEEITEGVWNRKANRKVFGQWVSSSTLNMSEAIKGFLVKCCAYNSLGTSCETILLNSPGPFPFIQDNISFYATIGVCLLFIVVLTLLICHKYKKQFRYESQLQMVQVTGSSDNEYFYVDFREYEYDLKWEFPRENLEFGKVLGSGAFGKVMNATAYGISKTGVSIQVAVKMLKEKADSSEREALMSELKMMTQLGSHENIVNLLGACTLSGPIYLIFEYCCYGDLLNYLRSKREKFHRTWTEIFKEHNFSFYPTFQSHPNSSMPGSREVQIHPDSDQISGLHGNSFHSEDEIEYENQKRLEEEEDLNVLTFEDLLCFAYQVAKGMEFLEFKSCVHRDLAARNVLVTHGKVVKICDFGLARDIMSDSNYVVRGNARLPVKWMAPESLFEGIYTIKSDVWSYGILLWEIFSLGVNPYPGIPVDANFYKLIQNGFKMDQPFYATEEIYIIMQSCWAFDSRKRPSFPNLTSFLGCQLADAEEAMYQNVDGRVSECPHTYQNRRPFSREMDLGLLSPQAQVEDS
UniProt P06241, whole entry, looked up: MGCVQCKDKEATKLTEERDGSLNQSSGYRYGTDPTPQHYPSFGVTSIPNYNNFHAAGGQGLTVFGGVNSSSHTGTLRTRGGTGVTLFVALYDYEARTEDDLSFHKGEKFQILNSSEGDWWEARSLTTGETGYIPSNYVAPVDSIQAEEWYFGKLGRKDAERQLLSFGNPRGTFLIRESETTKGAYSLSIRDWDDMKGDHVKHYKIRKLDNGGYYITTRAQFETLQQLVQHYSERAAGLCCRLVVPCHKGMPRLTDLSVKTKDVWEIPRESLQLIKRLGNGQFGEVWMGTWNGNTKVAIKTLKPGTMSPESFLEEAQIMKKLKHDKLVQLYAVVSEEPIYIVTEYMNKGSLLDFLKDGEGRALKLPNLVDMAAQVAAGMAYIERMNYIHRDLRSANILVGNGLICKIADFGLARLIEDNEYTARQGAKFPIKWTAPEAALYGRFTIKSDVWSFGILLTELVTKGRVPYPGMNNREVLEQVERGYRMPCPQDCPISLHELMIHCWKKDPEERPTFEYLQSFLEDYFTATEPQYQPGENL
UniProt P49840: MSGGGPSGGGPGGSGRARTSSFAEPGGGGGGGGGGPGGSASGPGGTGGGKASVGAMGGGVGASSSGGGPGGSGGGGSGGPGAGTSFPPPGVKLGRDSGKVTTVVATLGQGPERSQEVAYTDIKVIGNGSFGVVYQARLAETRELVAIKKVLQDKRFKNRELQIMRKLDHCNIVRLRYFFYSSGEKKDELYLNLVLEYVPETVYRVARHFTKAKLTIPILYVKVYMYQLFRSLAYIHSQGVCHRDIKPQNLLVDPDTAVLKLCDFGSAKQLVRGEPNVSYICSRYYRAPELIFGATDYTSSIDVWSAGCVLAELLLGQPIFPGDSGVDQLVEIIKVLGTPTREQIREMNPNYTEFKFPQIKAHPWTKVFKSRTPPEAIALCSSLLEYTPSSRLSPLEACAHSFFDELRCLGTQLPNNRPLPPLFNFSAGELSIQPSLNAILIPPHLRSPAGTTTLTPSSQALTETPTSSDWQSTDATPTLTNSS
UniProt P14616: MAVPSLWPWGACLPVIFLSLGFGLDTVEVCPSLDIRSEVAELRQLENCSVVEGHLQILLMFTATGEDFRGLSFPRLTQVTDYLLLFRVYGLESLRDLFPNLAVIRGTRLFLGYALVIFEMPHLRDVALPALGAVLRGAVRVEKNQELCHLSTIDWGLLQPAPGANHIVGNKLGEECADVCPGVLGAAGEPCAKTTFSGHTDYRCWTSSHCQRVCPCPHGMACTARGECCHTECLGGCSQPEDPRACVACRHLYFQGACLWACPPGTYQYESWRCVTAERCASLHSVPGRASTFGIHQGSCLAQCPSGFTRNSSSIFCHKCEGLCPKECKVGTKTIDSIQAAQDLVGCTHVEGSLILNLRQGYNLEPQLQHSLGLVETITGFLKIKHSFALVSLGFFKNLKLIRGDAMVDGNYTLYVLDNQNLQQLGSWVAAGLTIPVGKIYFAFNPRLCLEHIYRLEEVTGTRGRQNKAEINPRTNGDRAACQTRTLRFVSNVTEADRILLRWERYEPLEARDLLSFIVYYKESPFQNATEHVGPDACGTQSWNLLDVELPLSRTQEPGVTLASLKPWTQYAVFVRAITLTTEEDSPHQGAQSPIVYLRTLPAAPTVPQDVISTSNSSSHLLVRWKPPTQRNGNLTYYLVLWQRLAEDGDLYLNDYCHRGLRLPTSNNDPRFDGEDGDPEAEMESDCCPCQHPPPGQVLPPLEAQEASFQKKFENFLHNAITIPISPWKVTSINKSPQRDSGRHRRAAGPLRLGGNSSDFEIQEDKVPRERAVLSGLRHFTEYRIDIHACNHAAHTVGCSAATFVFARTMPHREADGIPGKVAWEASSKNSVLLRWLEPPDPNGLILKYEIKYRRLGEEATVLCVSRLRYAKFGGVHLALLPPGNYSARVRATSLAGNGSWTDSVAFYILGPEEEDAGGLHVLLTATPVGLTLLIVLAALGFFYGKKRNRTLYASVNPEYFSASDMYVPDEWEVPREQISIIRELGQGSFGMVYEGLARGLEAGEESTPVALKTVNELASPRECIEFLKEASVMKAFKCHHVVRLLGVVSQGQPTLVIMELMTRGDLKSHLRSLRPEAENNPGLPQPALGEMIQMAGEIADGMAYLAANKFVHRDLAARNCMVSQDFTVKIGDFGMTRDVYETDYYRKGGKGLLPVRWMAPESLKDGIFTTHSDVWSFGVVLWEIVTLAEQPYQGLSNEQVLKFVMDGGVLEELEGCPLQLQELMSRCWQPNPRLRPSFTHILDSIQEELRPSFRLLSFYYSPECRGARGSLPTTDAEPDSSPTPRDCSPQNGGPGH
UniProt P53671: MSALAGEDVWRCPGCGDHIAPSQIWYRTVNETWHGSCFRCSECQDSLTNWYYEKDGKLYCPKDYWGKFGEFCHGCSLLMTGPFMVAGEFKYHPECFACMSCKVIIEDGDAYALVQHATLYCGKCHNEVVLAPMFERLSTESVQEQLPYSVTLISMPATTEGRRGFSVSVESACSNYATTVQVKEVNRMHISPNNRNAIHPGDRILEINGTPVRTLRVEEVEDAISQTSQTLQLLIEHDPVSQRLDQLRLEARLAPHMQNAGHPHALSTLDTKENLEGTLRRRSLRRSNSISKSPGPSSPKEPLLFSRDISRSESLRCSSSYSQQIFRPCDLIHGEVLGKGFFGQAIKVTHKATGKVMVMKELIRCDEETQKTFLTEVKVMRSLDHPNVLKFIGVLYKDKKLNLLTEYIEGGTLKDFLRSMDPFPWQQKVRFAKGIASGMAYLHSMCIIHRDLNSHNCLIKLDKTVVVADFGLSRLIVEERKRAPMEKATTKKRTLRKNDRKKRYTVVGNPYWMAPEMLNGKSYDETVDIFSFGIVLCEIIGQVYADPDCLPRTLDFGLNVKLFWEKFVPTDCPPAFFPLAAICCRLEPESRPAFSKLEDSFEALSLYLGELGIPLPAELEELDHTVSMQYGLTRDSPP
UniProt P07948: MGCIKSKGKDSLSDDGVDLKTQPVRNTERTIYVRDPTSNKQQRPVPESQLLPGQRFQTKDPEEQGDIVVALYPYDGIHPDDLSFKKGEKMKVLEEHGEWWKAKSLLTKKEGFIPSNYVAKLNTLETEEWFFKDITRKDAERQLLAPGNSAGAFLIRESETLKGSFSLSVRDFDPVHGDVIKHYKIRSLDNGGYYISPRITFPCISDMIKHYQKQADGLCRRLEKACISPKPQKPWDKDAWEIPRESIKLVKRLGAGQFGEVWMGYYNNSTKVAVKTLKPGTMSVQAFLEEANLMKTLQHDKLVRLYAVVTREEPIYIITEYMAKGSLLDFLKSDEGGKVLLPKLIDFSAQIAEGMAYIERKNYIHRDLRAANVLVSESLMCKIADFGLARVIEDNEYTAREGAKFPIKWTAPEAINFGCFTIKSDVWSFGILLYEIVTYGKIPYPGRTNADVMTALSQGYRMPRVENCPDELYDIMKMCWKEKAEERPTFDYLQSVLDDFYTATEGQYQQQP
UniProt P28482, whole entry: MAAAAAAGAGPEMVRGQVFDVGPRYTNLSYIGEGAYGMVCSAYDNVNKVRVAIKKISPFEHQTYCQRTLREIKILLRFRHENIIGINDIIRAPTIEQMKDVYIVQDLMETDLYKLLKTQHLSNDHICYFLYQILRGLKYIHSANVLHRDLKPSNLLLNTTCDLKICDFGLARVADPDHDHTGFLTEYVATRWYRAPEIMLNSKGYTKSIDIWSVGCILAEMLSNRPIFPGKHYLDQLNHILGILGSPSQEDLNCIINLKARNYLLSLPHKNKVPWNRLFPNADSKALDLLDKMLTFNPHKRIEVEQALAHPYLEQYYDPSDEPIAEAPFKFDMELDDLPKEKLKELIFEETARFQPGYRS
UniProt P31152, whole entry: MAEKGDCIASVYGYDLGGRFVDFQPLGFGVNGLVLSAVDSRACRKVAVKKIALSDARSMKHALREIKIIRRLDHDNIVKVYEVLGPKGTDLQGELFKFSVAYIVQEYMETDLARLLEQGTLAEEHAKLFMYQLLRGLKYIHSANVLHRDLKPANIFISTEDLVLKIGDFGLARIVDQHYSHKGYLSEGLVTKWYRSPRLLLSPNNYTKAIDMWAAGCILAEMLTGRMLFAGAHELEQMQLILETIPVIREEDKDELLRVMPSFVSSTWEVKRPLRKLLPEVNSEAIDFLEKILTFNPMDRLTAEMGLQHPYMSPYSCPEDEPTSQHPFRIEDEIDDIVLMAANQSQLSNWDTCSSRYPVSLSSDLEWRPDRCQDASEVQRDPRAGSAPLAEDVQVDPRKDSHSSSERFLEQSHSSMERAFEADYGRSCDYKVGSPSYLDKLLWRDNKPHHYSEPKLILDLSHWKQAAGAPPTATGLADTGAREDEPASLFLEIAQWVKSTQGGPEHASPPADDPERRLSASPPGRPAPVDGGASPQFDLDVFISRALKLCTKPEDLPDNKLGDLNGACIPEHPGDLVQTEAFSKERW
UniProt P49137, whole entry, looked up: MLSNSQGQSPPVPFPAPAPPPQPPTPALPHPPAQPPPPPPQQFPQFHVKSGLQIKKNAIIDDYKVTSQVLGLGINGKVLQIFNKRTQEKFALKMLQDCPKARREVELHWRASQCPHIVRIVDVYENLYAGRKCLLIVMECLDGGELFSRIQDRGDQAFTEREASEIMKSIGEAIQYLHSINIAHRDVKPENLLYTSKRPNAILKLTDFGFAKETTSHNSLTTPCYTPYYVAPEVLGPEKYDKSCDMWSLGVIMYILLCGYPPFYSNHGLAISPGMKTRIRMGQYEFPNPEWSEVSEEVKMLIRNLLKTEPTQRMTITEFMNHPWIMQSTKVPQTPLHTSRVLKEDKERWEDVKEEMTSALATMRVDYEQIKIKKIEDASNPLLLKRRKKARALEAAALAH
UniProt Q9BUB5: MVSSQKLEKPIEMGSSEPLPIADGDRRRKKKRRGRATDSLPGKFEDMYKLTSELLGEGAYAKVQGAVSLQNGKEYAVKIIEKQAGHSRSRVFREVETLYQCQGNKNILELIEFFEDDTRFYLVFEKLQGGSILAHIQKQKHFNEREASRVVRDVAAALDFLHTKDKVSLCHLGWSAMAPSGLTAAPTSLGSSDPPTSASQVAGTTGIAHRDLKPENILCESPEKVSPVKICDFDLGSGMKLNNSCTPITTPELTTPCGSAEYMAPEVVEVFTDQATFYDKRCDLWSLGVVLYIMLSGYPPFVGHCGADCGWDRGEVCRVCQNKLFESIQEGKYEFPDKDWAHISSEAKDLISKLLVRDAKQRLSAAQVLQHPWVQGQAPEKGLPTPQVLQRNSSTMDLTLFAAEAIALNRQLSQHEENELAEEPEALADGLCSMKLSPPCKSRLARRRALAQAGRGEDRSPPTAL

Assays:
Experiment in all cases: number of time points (of 5) at which kinase-Nluc abundance scored as decreased, DMSO-normalised (count); higher = more persistent destabilization
Conditions in all cases: K562; 2-18 h
FLT3 = FLT3 (UniProt P36888)
FYN = FYN (UniProt P06241)
GSK3A = GSK3A (UniProt P49840)
HER2 = HER2 (UniProt P04626)
INSRR = INSRR (UniProt P14616)
IRAK3 = IRAK3 (UniProt Q9Y616)
JAK1 = JAK1 (UniProt P23458)
LCK = LCK (UniProt P06239)
LIMK1 = LIMK1 (UniProt P53667)
LIMK2 = LIMK2 (UniProt P53671)
LMTK2 = LMTK2 (UniProt Q8IWU2)
LYN = LYN (UniProt P07948)
MAP2K1 = MAP2K1 (UniProt Q02750)
MAP2K2 = MAP2K2 (UniProt P36507)
MAP4K2 = MAP4K2 (UniProt Q12851)
MAPK1 = MAPK1 (UniProt P28482)
MAPK4 = MAPK4 (UniProt P31152)
MAPKAPK2 = MAPKAPK2 (UniProt P49137)
MKNK1 = MKNK1 (UniProt Q9BUB5)
NTRK2 = NTRK2 (UniProt Q16620)

SMILES | number of time points (FLT3) | number of time points (FYN) | number of time points (GSK3A) | number of time points (HER2) | number of time points (INSRR) | number of time points (IRAK3) | number of time points (JAK1) | number of time points (LCK) | number of time points (LIMK1) | number of time points (LIMK2) | number of time points (LMTK2) | number of time points (LYN) | number of time points (MAP2K1) | number of time points (MAP2K2) | number of time points (MAP4K2) | number of time points (MAPK1) | number of time points (MAPK4) | number of time points (MAPKAPK2) | number of time points (MKNK1) | number of time points (NTRK2)
CNC(=O)Nc1cc(Oc2cncc(C)c2)c(-c2ccc(OCC(C)(C)O)nc2)cn1 (2.5 µM) | 0 | 0 | 0 | 0 | 0 | 0 | 0 | 0 | 0 | 0 | 0 | 0 | 0 | 0 | 0 | 0 | 0 | 0 | 0 | 0
N#C/C(=C\c1ccc[nH]1)c1ccc(Cl)c(Cl)c1 (2.5 µM) | 0 | 0 | 0 | 0 | 0 | 0 | 0 | 0 | 0 | 0 | 0 | 0 | 0 | 0 | 0 | 0 | 0 | 0 | 0 | 0
CC(=O)Nc1nc(C)c(-c2ccc(Cl)c(S(=O)(=O)NCCO)c2)s1 (10 µM) | 0 | 0 | 0 | 0 | 0 | 0 | 0 | 0 | 2 | 0 | 0 | 0 | 0 | 0 | 0 | 0 | 0 | 0 | 1 | 0
O=C(O)/C=C/c1cc(Br)c(Br)c(Br)c1Br (10 µM) | 0 | 0 | 0 | 0 | 0 | 0 | 0 | 0 | 0 | 0 | 0 | 0 | 0 | 0 | 0 | 0 | 0 | 0 | 0 | 0
COc1cc(-c2cc(-c3cccc(O)c3)cnc2N)cc(OC)c1OC (2.5 µM) | 1 | 0 | 0 | 0 | 2 | 0 | 0 | 0 | 0 | 0 | 0 | 0 | 0 | 0 | 0 | 0 | 0 | 0 | 0 | 0
CN1CCC(c2ccccc2CC(C)(C)Nc2nc(N3CCOCC3)nc(-n3c(S(C)(=O)=O)nc4ccccc43)n2)CC1 (10 µM) | 0 | 0 | 0 | 0 | 0 | 0 | 0 | 0 | 0 | 0 | 0 | 0 | 0 | 0 | 0 | 0 | 0 | 0 | 0 | 0
CCN1C(C)(C)CC(Oc2ccc(C(=O)Nc3ccc(NC(=O)Nc4cc(C(C)(C)C)on4)cc3)nc2)CC1(C)C (10 µM) | 0 | 0 | 0 | 0 | 0 | 0 | 0 | 0 | 0 | 0 | 0 | 0 | 0 | 0 | 0 | 0 | 0 | 0 | 0 | 0
NC(=O)c1ccc2nc(-c3ccc(C4(N)CCC4)cc3)c(-c3ccccc3)n2n1 (10 µM) | 0 | 0 | 0 | 0 | 0 | 0 | 0 | 0 | 0 | 0 | 0 | 0 | 0 | 0 | 0 | 0 | 0 | 0 | 0 | 0
C1=N/C2=N/c3ccc(OCCN4CCCC4)c(c3)COC/C=C/COCc3cccc(c3)C(=C1)N2 [Pacritinib] (2.5 µM) | 0 | 0 | 0 | 0 | 0 | 0 | 0 | 0 | 0 | 0 | 0 | 0 | 0 | 0 | 0 | 0 | 0 | 0 | 0 | 0
COC(=O)[C@]1(C)CC[C@]2(C(=O)O[C@@H]3O[C@H](CO)[C@@H](O)[C@H](O)[C@H]3O)CC[C@]3(C)C(=CC[C@@H]4[C@@]5(C)C[C@H](O)[C@H](O[C@@H]6OC[C@@H](O[C@@H]7O[C@H](CO)[C@@H](O)[C@H](O)[C@H]7O)[C@H](O)[C@H]6O)[C@@](C)(CO)C5CC[C@]43C)[C@H]2C1 (stereo not given in full) [Esculentoside H] (10 µM) | 0 | 0 | 0 | 0 | 0 | 0 | 0 | 0 | 0 | 0 | 0 | 0 | 0 | 0 | 0 | 0 | 0 | 0 | 0 | 0
CCOc1cc(C(=O)N2CCC(N3CCN(C)CC3)CC2)ccc1Nc1ncc2c(n1)N(S(C)(=O)=O)c1ccccc1C(=O)N2C (10 µM) | 0 | 0 | 0 | 0 | 0 | 0 | 0 | 0 | 0 | 0 | 0 | 0 | 0 | 0 | 0 | 0 | 0 | 0 | 0 | 0
CC(C)(O)c1cc2nc(-c3cnc(N)nc3)nc(N3CCOCC3)c2s1 (2.5 µM) | 0 | 0 | 0 | 1 | 0 | 2 | 0 | 0 | 4 | 3 | 0 | 0 | 0 | 0 | 0 | 0 | 0 | 0 | 0 | 0
O=C(CC(c1ccccc1)C(C(=O)O)C(=O)O)c1ccc(C(F)(F)F)cc1 (stereo not given) (10 µM) | 0 | 0 | 0 | 0 | 0 | 0 | 0 | 0 | 0 | 0 | 0 | 0 | 0 | 0 | 0 | 0 | 0 | 0 | 0 | 0
Cc1c(Br)c(Br)c2c3c1nc(N1CCNCC1)n3CCC2 [SEL120-34A (monohydrochloride)] (2.5 µM) | 0 | 0 | 0 | 0 | 0 | 0 | 0 | 0 | 0 | 0 | 0 | 0 | 0 | 0 | 0 | 0 | 0 | 0 | 0 | 0
O=C(O)[C@]1(Cc2cccc(Nc3nccs3)n2)CC[C@@H](Oc2cccc(Cl)c2F)CC1 (2.5 µM) | 1 | 0 | 0 | 0 | 2 | 1 | 1 | 0 | 1 | 2 | 0 | 0 | 0 | 0 | 0 | 0 | 1 | 0 | 1 | 1
C[C@@]12CCc3occc3[C@H]1CC[C@@]13C[C@@H](CC[C@H]12)[C@@](O)(CO)C3 [Cafestol] (10 µM) | 0 | 0 | 0 | 0 | 0 | 0 | 0 | 0 | 0 | 0 | 0 | 0 | 0 | 0 | 0 | 0 | 0 | 0 | 0 | 0
COC[C@H]1Cn2cc(-c3nc(Nc4ccnn4C)ncc3C)nc2C(=O)N1Cc1ccc(F)c(F)c1 (10 µM) | 0 | 0 | 0 | 0 | 0 | 0 | 0 | 0 | 0 | 0 | 0 | 0 | 0 | 0 | 0 | 0 | 0 | 0 | 0 | 0
C=CC(=O)Nc1cc(C(=O)NC)cc(-c2n[nH]c3ccccc23)c1 (10 µM) | 0 | 0 | 0 | 2 | 0 | 0 | 0 | 0 | 0 | 0 | 1 | 0 | 0 | 0 | 0 | 0 | 0 | 0 | 0 | 0
COc1ccc(-c2cnc3c(-c4cccc5ncccc45)cnn3c2)cc1 (10 µM) | 0 | 0 | 0 | 0 | 0 | 0 | 0 | 0 | 0 | 0 | 0 | 0 | 0 | 0 | 0 | 0 | 0 | 0 | 0 | 0
Cc1cc([N+](=O)[O-])c(NS(=O)(=O)c2cccc(C(=O)O)c2)cc1-c1cccnc1 [Alofanib] (10 µM) | 0 | 0 | 0 | 0 | 0 | 0 | 0 | 0 | 0 | 0 | 0 | 0 | 0 | 0 | 0 | 0 | 0 | 0 | 0 | 0
C=CC(=O)Nc1cccc(Oc2nc(Nc3ccc(N4CCN(C)CC4)cc3)nc3ccsc23)c1 [Olmutinib] (2.5 µM) | 0 | 0 | 0 | 0 | 0 | 0 | 0 | 0 | 0 | 0 | 0 | 0 | 0 | 0 | 0 | 0 | 0 | 0 | 0 | 0
O=C(CCc1ccc2n1[B-](F)(F)[N+]1=C(c3ccc[nH]3)C=CC1=C2)ON1C(=O)CCC1=O [Py-BODIPY-NHS ester] (2.5 µM) | 0 | 0 | 0 | 0 | 0 | 0 | 0 | 0 | 0 | 0 | 0 | 0 | 0 | 0 | 0 | 0 | 0 | 0 | 0 | 0
CNC(=O)c1ccc(-c2cnc3ncc(Cc4ccc5ncccc5c4)n3n2)cc1F [Capmatinib] (10 µM) | 0 | 0 | 0 | 0 | 0 | 0 | 0 | 0 | 0 | 0 | 0 | 0 | 0 | 0 | 0 | 0 | 0 | 0 | 0 | 0
Cn1cc(C2=C(c3c4n(c5ccccc35)CCC(CN)C4)C(=O)NC2=O)c2ccccc21 (stereo not given) [Bisindolylmaleimide X (hydrochloride)] (2.5 µM) | 0 | 0 | 0 | 0 | 0 | 0 | 0 | 0 | 0 | 0 | 0 | 0 | 0 | 0 | 0 | 0 | 0 | 0 | 0 | 0

Single values from the entries so far.
number of time points (NTRK2) with `CCN1C(C)(C)CC(Oc2ccc(C(=O)Nc3ccc(NC(=O)Nc4cc(C(C)(C)C)on4)cc3)nc2)CC1(C)C` (10 µM) is entered as 0
number of time points (LIMK1) with `NC(=O)c1ccc2nc(-c3ccc(C4(N)CCC4)cc3)c(-c3ccccc3)n2n1` (10 µM) is entered as 0
